{
  "source": "patent US20040254162A1",
  "about": "“Oxazolidinone derivatives as antimicrobials” (priority 2001, published 2004)",
  "key": {"E. faecalis": {"test_system": "E. faecalis", "assay": "Summary of in vitro activity (MIC)", "settings": "Enterococcus faecalis, read-out: Geometric Mean of in vitro activity (MIC)"}, "S. aureus": {"test_system": "S. aureus", "assay": "Summary of in vitro activity (MIC)", "settings": "Staphylococcus aureus, read-out: Geometric Mean of in vitro activity (MIC)"}, "S. aureus ATCC 25923": {"test_system": "S. aureus ATCC 25923", "assay": "MIC, agar incorporation method", "settings": "Staphylococcus aureus, ATCC25923, read-out: MIC S. aureus 25923"}},
  "data": [
    {"smiles": "CN[C@H](CC(C)C)C(=O)N[C@H]1C(=O)N[C@@H](CC(N)=O)C(=O)N[C@H]2C(=O)N[C@H]3C(=O)N[C@H](C(=O)N[C@H](C(=O)O)c4cc(O)cc(O)c4-c4cc3ccc4O)[C@H](O)c3ccc(c(Cl)c3)Oc3cc2cc(c3O[C@@H]2O[C@H](CO)[C@@H](O)[C@H](O)[C@H]2O[C@H]2C[C@](C)(N)[C@H](O)[C@H](C)O2)Oc2ccc(cc2Cl)[C@H]1O", "note": "[Vancomycin]", "values": [
      {"measurement": "MIC", "setting": "E. faecalis", "value": 9.75, "unit": "µg/mL"},
      {"measurement": "MIC", "setting": "S. aureus", "value": 1, "unit": "µg/mL"},
      {"measurement": "MIC", "setting": "S. aureus ATCC 25923", "value": 1, "unit": "µg/mL"}
    ]}
  ]
}
